Measurements reported in PubChem BioAssay AID1259254 (NCATS, 2017)

Assay: 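Gene knock-downs that lead to re-replication, shown by excess G2 DNA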 (primary screen)
Cell system: human HCT116 colorectal cancer cells
Reagents: single siRNA against human genes
Timing: 3 days
Detection: 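Imaged Hoechst DNA stain sorts each cell into a cycle phase by DNA amount; per plate, G2 fraction set to 0% for non-targeting and 100% for GMNN siRNA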
Direction: G2 robust z-score and G2 cells, % of GMNN control: higher = more G2 cells, more excess DNA replication
Hit rule: 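An siRNA counts as active if its G2 robust z-score lies at least 5 MADs above the screen median; here such calls match roughly 38% of GMNN control or more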
Shown is one part, drawn at random, of about 59,000 reagents. About 1,550 of all reagents (2.6%) were called active. 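G2 share is only a proxy for re-replication; each gene was hit by three separate siRNAs, and active genes were retested.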 Reagents against one gene are numbered here. Further read-outs or replicates are left out here. Not given: the amount of reagent.

{"gene": "MRPS15", "siRNA no.": 1, "G2 robust z-score": -0.0738, "G2 cells, % of GMNN control": 2.45, "call": "inactive"}
{"gene": "MRPS15", "siRNA no.": 2, "G2 robust z-score": -0.152, "G2 cells, % of GMNN control": 1.9, "call": "inactive"}
{"gene": "MRPS15", "siRNA no.": 3, "G2 robust z-score": 0.684, "G2 cells, % of GMNN control": 7.78, "call": "inactive"}
{"gene": "PABPC1L", "siRNA no.": 1, "G2 robust z-score": -0.278, "G2 cells, % of GMNN control": 1.01, "call": "inactive"}
{"gene": "PABPC1L", "siRNA no.": 2, "G2 robust z-score": -0.67, "G2 cells, % of GMNN control": -1.75, "call": "inactive"}
{"gene": "PABPC1L", "siRNA no.": 3, "G2 robust z-score": -0.118, "G2 cells, % of GMNN control": 2.14, "call": "inactive"}
{"gene": "MICA", "siRNA no.": 1, "G2 robust z-score": 0.399, "G2 cells, % of GMNN control": 5.77, "call": "inactive"}
{"gene": "MICA", "siRNA no.": 2, "G2 robust z-score": -0.734, "G2 cells, % of GMNN control": -2.19, "call": "inactive"}
{"gene": "MICA", "siRNA no.": 3, "G2 robust z-score": -0.23, "G2 cells, % of GMNN control": 1.35, "call": "inactive"}
{"gene": "TATDN2", "siRNA no.": 1, "G2 robust z-score": -0.0145, "G2 cells, % of GMNN control": 2.87, "call": "inactive"}
{"gene": "TATDN2", "siRNA no.": 2, "G2 robust z-score": -0.459, "G2 cells, % of GMNN control": -0.261, "call": "inactive"}
{"gene": "TATDN2", "siRNA no.": 3, "G2 robust z-score": 1.15, "G2 cells, % of GMNN control": 11.1, "call": "inactive"}
{"gene": "PKMYT1", "siRNA no.": 1, "G2 robust z-score": 0.127, "G2 cells, % of GMNN control": 3.86, "call": "inactive"}
{"gene": "PKMYT1", "siRNA no.": 2, "G2 robust z-score": 0.0553, "G2 cells, % of GMNN control": 3.36, "call": "inactive"}
{"gene": "PKMYT1", "siRNA no.": 3, "G2 robust z-score": -0.169, "G2 cells, % of GMNN control": 1.78, "call": "inactive"}
{"gene": "PRKG2", "siRNA no.": 1, "G2 robust z-score": -0.932, "G2 cells, % of GMNN control": -3.59, "call": "inactive"}
{"gene": "PRKG2", "siRNA no.": 2, "G2 robust z-score": -1.27, "G2 cells, % of GMNN control": -5.94, "call": "inactive"}
{"gene": "PRKG2", "siRNA no.": 3, "G2 robust z-score": -0.553, "G2 cells, % of GMNN control": -0.927, "call": "inactive"}
{"gene": "PDE4D", "siRNA no.": 1, "G2 robust z-score": -1.25, "G2 cells, % of GMNN control": -5.86, "call": "inactive"}
{"gene": "PDE4D", "siRNA no.": 2, "G2 robust z-score": 0.854, "G2 cells, % of GMNN control": 8.98, "call": "inactive"}
{"gene": "PDE4D", "siRNA no.": 3, "G2 robust z-score": -0.276, "G2 cells, % of GMNN control": 1.03, "call": "inactive"}
{"gene": "PDE4D", "siRNA no.": 4, "G2 robust z-score": -0.346, "G2 cells, % of GMNN control": 0.533, "call": "inactive"}
{"gene": "PDE4D", "siRNA no.": 5, "G2 robust z-score": 1.78, "G2 cells, % of GMNN control": 15.5, "call": "inactive"}
{"gene": "PDE4D", "siRNA no.": 6, "G2 robust z-score": -0.68, "G2 cells, % of GMNN control": -1.82, "call": "inactive"}
{"gene": "PDE4D", "siRNA no.": 7, "G2 robust z-score": -0.356, "G2 cells, % of GMNN control": 0.465, "call": "inactive"}
{"gene": "PDE4D", "siRNA no.": 8, "G2 robust z-score": 0.704, "G2 cells, % of GMNN control": 7.92, "call": "inactive"}
{"gene": "PDE4D", "siRNA no.": 9, "G2 robust z-score": -0.0472, "G2 cells, % of GMNN control": 2.64, "call": "inactive"}

4 entries from above in another layout:
| gene | siRNA no. | G2 robust z-score | G2 cells, % of GMNN control | call |
| --- | --- | --- | --- | --- |
| MRPS15 | 1 | -0.0738 | 2.45 | inactive |
| MRPS15 | 2 | -0.152 | 1.9 | inactive |
| MRPS15 | 3 | 0.684 | 7.78 | inactive |
| PABPC1L | 1 | -0.278 | 1.01 | inactive |
